Measured values as given in patent publication US10596223B2 (Xigen Inflammation Ltd., priority 2011, dated 2020).
Square brackets hold non-standard residues; d marks the D form.

Experiment: general procedure: Fmoc solid-phase peptide synthesis; Fmoc-Rink amide-MBHA resin; PyBOB/diisopropylethylamine/1-hydroxybenzotriazole (printed for linker coupling)
Conditions: whole synthesis, scale 0.7 mmol, acetate salt

H-[dR]KKR[dR]QRR[dR]RP[dK]RP[dA]TLNL[dF]-NH2 (N-terminus assumed; SMILES CC(C)C[C@H](NC(=O)[C@H](CC(N)=O)NC(=O)[C@H](CC(C)C)NC(=O)[C@@H](NC(=O)[C@@H](C)NC(=O)[C@@H]1CCCN1C(=O)[C@H](CCCNC(=N)N)NC(=O)[C@@H](CCCCN)NC(=O)[C@@H]1CCCN1C(=O)[C@H](CCCNC(=N)N)NC(=O)[C@@H](CCCNC(=N)N)NC(=O)[C@H](CCCNC(=N)N)NC(=O)[C@H](CCCNC(=N)N)NC(=O)[C@H](CCC(N)=O)NC(=O)[C@@H](CCCNC(=N)N)NC(=O)[C@H](CCCNC(=N)N)NC(=O)[C@H](CCCCN)NC(=O)[C@H](CCCCN)NC(=O)[C@H](N)CCCNC(=N)N)[C@@H](C)O)C(=O)N[C@H](Cc1ccccc1)C(N)=O)
final purity (method not given): ≥95%
